Test results taken from patent EP4306125A1, “IMMUNOGENIC PERSONALISED CANCER VACCINES” (Universität Zürich, priority 2022, dated 2024).
Part of at least one peptide drawing is inferred or uncertain, most often the ends. Some entries repeat one wording, which the source may state once for all of them. Ends that are not written are not given here.

Test system: tumour-infiltrating lymphocytes (TILs)
Assay: Proliferation assay of TILs stimulated with peptides (3H-thymidine incorporation, stimulation index)
Assay type: cell-based, human
Settings: TILs of the recurrent tumour after the 4th vaccination, 5 µM peptide, 5 days, proliferation as stimulation index (SI)

Question: DLRQRRVLF-NH2 [I_GBM_3_1] was tested. Which TIL responses did it give?
Answer: The TIL responses was “positive (The red dotted line indicates a stimulatory response of SI=2 and values above the red dotted line were considered positive)”.
